Results deposited as PubChem BioAssay AID1224828 (NIAID, 2016).
Screen: 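Regulators linking TLR4 signalling to p65 nuclear translocation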 (primary screen). System: mouse RAW264.7 G9 macrophage reporter cells (GFP-p65, Tnf promoter-mCherry). Reagents: siRNA pool against mouse genes, 100 nM. Timing: 2 days siRNA transfection, then 40 min LPS before fixation. Challenge: LPS (Salmonella minnesota R595) at 10 ng/ml. Measured: 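Microscopy ratio of nuclear to perinuclear-ring GFP-p65 signal, scaled to the plate median; gene score is the average of two replicate robust z-scores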. Scale: p65 translocation robust z-score: higher = more nuclear NF-kappaB p65 after LPS than the plate median; nuclear/cytoplasmic p65 ratio: higher = more nuclear NF-kappaB p65. Call rule: 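Active if robust z is above 3.3 (negative regulators) or below -1.56, the Tlr4 control median (positive regulators); activity score 50 or more; control wells not called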. Meaning of the calls: active = hit (p65 shift raised or lowered); inactive = no clear change.
Shown is an unselected part of about 17,000 deposited reagents. 762 of them (4.5%) were called active. 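Active calls include both raised and lowered p65 entry, mostly lowered; wells with fewer than 50 cells lack a z-score.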 Raw values vary from plate to plate and are shown uncorrected. A number with no mark means an inactive call. The numbers tell different reagents against one gene apart. No sequences are given here.

gene knocked down | pool no. | p65 translocation robust z-score | nuclear/cytoplasmic p65 ratio, rep 1 | nuclear/cytoplasmic p65 ratio, rep 2 | low cell count flag
Spon2 (spondin 2, extracellular matrix protein) | 1 | -0.99 | 1.34 | 1.08 | enough cells to score
Stoml3 (stomatin (Epb7.2)-like 3) | 1 | -0.82 | 1.34 | 1.11 | enough cells to score
Polr2j (polymerase (RNA) II (DNA directed) polypeptide J) | 1 | – | 1.4 | 1.13 | fewer than 50 cells per well; well left out of scoring
Acsf2 (acyl-CoA synthetase family member 2) | 1 | -1.17 | 1.46 | 1.58 | enough cells to score
Angel2 (angel homolog 2) | 1 | -1.72 (active) | 1.26 | 1.36 | enough cells to score
Rab38 (RAB38, member RAS oncogene family) | 1 | -1.98 (active) | 1.24 | 1.18 | enough cells to score
Gk5 (glycerol kinase 5) | 1 | – | 1.04 | 0 | fewer than 50 cells per well; well left out of scoring
Mtus2 (microtubule associated tumor suppressor candidate 2) | 1 | -1.05 | 1.2 | 1.47 | enough cells to score
Wdr1 (WD repeat domain 1) | 1 | 0.33 | 1.62 | 1.59 | enough cells to score
Arsb (arylsulfatase B) | 1 | -0.1 | 1.59 | 1.61 | enough cells to score
Arsb (arylsulfatase B) | 2 | -0.86 | 1.36 | 1.39 | enough cells to score
Zbtb18 (zinc finger and BTB domain containing 18) | 1 | 0.63 | 1.58 | 1.61 | enough cells to score
Sh3gl1 (SH3-domain GRB2-like 1) | 1 | 0.45 | 1.7 | 1.54 | enough cells to score
Ddhd1 (DDHD domain containing 1) | 1 | – | 1.15 | 1.13 | fewer than 50 cells per well; well left out of scoring
Gpr35 (G protein-coupled receptor 35) | 1 | -0.19 | 1.51 | 1.52 | enough cells to score
Bst2 (bone marrow stromal cell antigen 2) | 1 | – | 1.37 | 1.35 | fewer than 50 cells per well; well left out of scoring
Acbd4 (acyl-Coenzyme A binding domain containing 4) | 1 | 1.48 | 1.8 | 1.95 | enough cells to score
Mkrn2 (makorin, ring finger protein, 2) | 1 | 1.54 | 1.99 | 1.86 | enough cells to score
Klra5 (killer cell lectin-like receptor, subfamily A, member 5) | 1 | -0.21 | 1.42 | 1.38 | enough cells to score
Or2y10 (olfactory receptor family 2 subfamily Y member 10) | 1 | – | 1.73 | 1.46 | fewer than 50 cells per well; well left out of scoring
Bmper (BMP-binding endothelial regulator) | 1 | -0.11 | 1.38 | 1.55 | enough cells to score
Cttn (cortactin) | 1 | 0.09 | 1.42 | 1.45 | enough cells to score
Spaca7b (sperm acrosome associated 7B) | 1 | – | 1.48 | 1.47 | fewer than 50 cells per well; well left out of scoring
Dnajc22 (DnaJ heat shock protein family (Hsp40) member C22) | 1 | -1.35 | 1.12 | 1.03 | enough cells to score
Hmgb1 (high mobility group box 1) | 1 | -0.07 | 1.13 | 1.55 | enough cells to score

9 consecutive records already listed, for reference:
gene knocked down | pool no. | p65 translocation robust z-score | nuclear/cytoplasmic p65 ratio, rep 1 | nuclear/cytoplasmic p65 ratio, rep 2 | low cell count flag
Spon2 (spondin 2, extracellular matrix protein) | 1 | -0.99 | 1.34 | 1.08 | enough cells to score
Stoml3 (stomatin (Epb7.2)-like 3) | 1 | -0.82 | 1.34 | 1.11 | enough cells to score
Polr2j (polymerase (RNA) II (DNA directed) polypeptide J) | 1 | – | 1.4 | 1.13 | fewer than 50 cells per well; well left out of scoring
Acsf2 (acyl-CoA synthetase family member 2) | 1 | -1.17 | 1.46 | 1.58 | enough cells to score
Angel2 (angel homolog 2) | 1 | -1.72 (active) | 1.26 | 1.36 | enough cells to score
Rab38 (RAB38, member RAS oncogene family) | 1 | -1.98 (active) | 1.24 | 1.18 | enough cells to score
Gk5 (glycerol kinase 5) | 1 | – | 1.04 | 0 | fewer than 50 cells per well; well left out of scoring
Mtus2 (microtubule associated tumor suppressor candidate 2) | 1 | -1.05 | 1.2 | 1.47 | enough cells to score
Wdr1 (WD repeat domain 1) | 1 | 0.33 | 1.62 | 1.59 | enough cells to score

The listing continues.
gene knocked down | pool no. | p65 translocation robust z-score | nuclear/cytoplasmic p65 ratio, rep 1 | nuclear/cytoplasmic p65 ratio, rep 2 | low cell count flag
Ushbp1 (USH1 protein network component harmonin binding protein 1) | 1 | – | 1.31 | 1.26 | fewer than 50 cells per well; well left out of scoring
Slc7a1 | 1 | -0.07 | 1.4 | 1.24 | enough cells to score
Nhlrc3 (NHL repeat containing 3) | 1 | 0.34 | 1.46 | 1.61 | enough cells to score
Mtrf1l (mitochondrial translational release factor 1-like) | 1 | -0.68 | 1.53 | 1.5 | enough cells to score
Nme6 (NME/NM23 nucleoside diphosphate kinase 6) | 1 | -0.05 | 1.46 | 1.37 | enough cells to score
Rhox11 (reproductive homeobox 11) | 1 | -0.27 | 1.28 | 1.49 | enough cells to score
Ids (iduronate 2-sulfatase) | 1 | 0.09 | 1.43 | 1.4 | enough cells to score
D830050J10Rik (RIKEN cDNA D830050J10 gene) | 1 | -1.47 | 1.33 | 1.51 | enough cells to score
Zfp704 (zinc finger protein 704) | 1 | -1.45 | 1.36 | 1.41 | enough cells to score
Pspn (persephin) | 1 | -0.46 | 1.45 | 1.33 | enough cells to score
Klrc1 (killer cell lectin-like receptor subfamily C, member 1) | 1 | 1.7 | 1.83 | 1.63 | enough cells to score
Usp31 (ubiquitin specific peptidase 31) | 1 | 0.24 | 1.71 | 1.59 | enough cells to score
Sorcs3 (sortilin-related VPS10 domain containing receptor 3) | 1 | 0.83 | 1.7 | 1.65 | enough cells to score
Rad54l (RAD54 like (S. cerevisiae)) | 1 | 0.19 | 1.63 | 1.46 | enough cells to score
Ifitm10 (interferon induced transmembrane protein 10) | 1 | -1.61 (active) | 1.2 | 1.2 | enough cells to score
Dll4 (delta like canonical Notch ligand 4) | 1 | 0.42 | 1.56 | 1.41 | enough cells to score
Crisp2 (cysteine-rich secretory protein 2) | 1 | -0.31 | 1.36 | 1.92 | enough cells to score
Rab33a (RAB33A, member RAS oncogene family) | 1 | -0.28 | 1.5 | 1.46 | enough cells to score
Tmem176b (transmembrane protein 176B) | 1 | -0.07 | 1.38 | 1.25 | enough cells to score
Gja10 (gap junction protein, alpha 10) | 1 | -0.69 | 1.2 | 1.39 | enough cells to score
Txndc5 (thioredoxin domain containing 5) | 1 | -0.21 | 1.46 | 1.49 | enough cells to score
Akr1b1 (aldo-keto reductase family 1 member B) | 1 | -0.84 | 1.46 | 1.52 | enough cells to score
Zdhhc6 (zinc finger, DHHC domain containing 6) | 1 | – | 1.36 | 1.24 | fewer than 50 cells per well; well left out of scoring
Pot1a (protection of telomeres 1A) | 1 | 0.26 | 1.5 | 1.48 | enough cells to score
Or2l13b (olfactory receptor family 2 subfamily L member 13B) | 1 | -0.68 | 1.45 | 1.38 | enough cells to score
Prokr1 (prokineticin receptor 1) | 1 | -1.32 | 1.31 | 1.4 | enough cells to score
Tmem97 (transmembrane protein 97) | 1 | -1.49 | 1.29 | 1.14 | enough cells to score
Trpm4 | 1 | -1.1 | 1.44 | 1.28 | enough cells to score
Dgke (diacylglycerol kinase, epsilon) | 1 | -0.59 | 1.69 | 1.31 | enough cells to score
Mrpl38 (mitochondrial ribosomal protein L38) | 1 | 0.32 | 1.9 | 1.58 | enough cells to score
Sfxn3 (sideroflexin 3) | 1 | – | 1.48 | 1.09 | fewer than 50 cells per well; well left out of scoring
Ube2g2 (ubiquitin-conjugating enzyme E2G 2) | 1 | 1.99 | 1.67 | 1.89 | enough cells to score
Prr14 (proline rich 14) | 1 | -1.31 | 1.31 | 1.71 | enough cells to score
Cse1l (chromosome segregation 1 like) | 1 | 0.7 | 1.76 | 1.45 | enough cells to score
